Assay results as given in patent US20110263609A1 (priority 2007, published 2011).
pIC50: −log10 of the molar value.

Tested on: Jurkat
Experiment: cells
Conditions: Homo sapiens, 72 h
Description: PEER and Jurkat cell lines were purchased from the American Type Culture Collection (ATCC, Manassas, Va.). SIL-ALL and BE-13 were purchased from the Deutsche Sammlung von Mikroorganismen and Zellkulturen GmbH (DSMZ, Braunschweig, Germany).

Compound: Cc1ccc(NC(=O)c2ccc(CN3CCN(C)CC3)cc2)cc1Nc1nccc(-c2cccnc2)n1 [imatinib]
- pIC50: < 5.00
